No constants are given. Whether binding was seen depends on the method and setting. In cells and extracts the contact can be indirect.

The test addresses PML (promyelocytic leukemia protein). The experiment in a line: FRET or BRET. For orientation: In BRET a luciferase serves as donor, and the signal depends on an acceptor being close.

B1: Arc (construct of the lifetime-FRET test with PML) (protein, UniProt Q9WV31 1-396)
chain: MELDHMTTGGLHAYPAPRGGPAAKPNVILQIGKCRAEMLEHVRRTHRHLLTEVSKQVERELKGLHRSVGKLENNLDGYVPTGDSQRWKKSIKACLCRCQETIANLERWVKREMHVWREVFYRLERWADRLESMGGKYPVGSEPARHTVSVGVGGPEPYCQEADGYDYTVSPYAITPPPAAGELPEQESVEAQQYQSWGPGEDGQPSPGVDTQIFEDPREFLSHLEEYLRQVGGSEEYWLSQIQNHMNGPAKKWWEFKQGSVKNWVEFKKEFLQYSEGTLSREAIQRELELPQKQGEPLDQFLWRKRDLYQTLYVDAEEEEIIQYVVGTLQPKLKRFLRHPLPKTLEQLIQRGMEVQDGLEQAAEPSGTPLPTEDETEALTPALTSESVASDRTQPE
As to B1, the binding result is “no binding”.

The record behind these values is article doi:10.1101/2021.12.02.470956.
